Laboratory results reported in patent US20180094051A1, “METHOD FOR INHIBITING LYMPHANGIOGENESIS BY ADMINISTRATION OF AN INHIBITOR OF THE CXCL12 PATHWAY” (Tsinghua University, priority 2012, published 2018).
At least one compound was matched to its structure with a doubt left.

Test system: mouse lymphatic endothelial cells
Experiment: Cell chemotaxis assay (Transwell)
Assay type: cell-based
Details: CXCL12 100 ng/mL; antibodies 5 μg/mL, AMD3100 25 μg/mL, LY294002 and U0126 10 μM; pretreated 30 minutes; 6 hours
Experimental: The migration ability of mouse lymphatic endothelial cells was assessed using 8-μm-pore Transwell bucket (filter membrane) (purchased from Costar). The transwell bucket was placed into a 24-well plate. Mouse primary lymphatic endothelial cells (mLECs) at passage 2 or 3 in good conditions were selected, and divided into five groups, four parallel samples for each group and approximately 2×10^4 cells for each parallel sample. The cells were digested with trypsin, resuspended in 200 μL of fresh serum-free endothelial cell culture medium (ECM, purchased from Sciencell), and then seeded into the inner chambers of the Transwell bucket. To each outer chamber was added 800 μL of serum-free endothelial cell culture medium mixed with 1 ng/mL, 20 ng/mL, 100 ng/mL of chemokine CXCL12 (purchased from R&D Systems), 100 ng/mL of VEGF-C (purchased from R&D Systems) and PBS control, respectively. The culture plate was placed into an incubator and incubated under 5% CO2 at 37° C. for 6 hours. […]
The migration ability of mouse lymphatic endothelial cells was assessed using 8-μm-pore Transwell bucket (purchased from Costar). […] The cells were stained and the number of the migrated cells was counted.
The migration ability of mouse lymphatic endothelial cells was detected by using 8-μm-pore Transwell bucket (purchased from Costar). […]

Compound: O=c1cc(N2CCOCC2)oc2c(-c3ccccc3)cccc12 [LY294002]
- effect on migration of mouse lymphatic endothelial cells induced by CXCL12: inhibited the lymphatic endothelial cell migration induced by chemokine CXCL12
